Reference: PMC10681733

The chains behind the UniProt entries cited, without tags or fusion partners.
UniProt Q9UKL0: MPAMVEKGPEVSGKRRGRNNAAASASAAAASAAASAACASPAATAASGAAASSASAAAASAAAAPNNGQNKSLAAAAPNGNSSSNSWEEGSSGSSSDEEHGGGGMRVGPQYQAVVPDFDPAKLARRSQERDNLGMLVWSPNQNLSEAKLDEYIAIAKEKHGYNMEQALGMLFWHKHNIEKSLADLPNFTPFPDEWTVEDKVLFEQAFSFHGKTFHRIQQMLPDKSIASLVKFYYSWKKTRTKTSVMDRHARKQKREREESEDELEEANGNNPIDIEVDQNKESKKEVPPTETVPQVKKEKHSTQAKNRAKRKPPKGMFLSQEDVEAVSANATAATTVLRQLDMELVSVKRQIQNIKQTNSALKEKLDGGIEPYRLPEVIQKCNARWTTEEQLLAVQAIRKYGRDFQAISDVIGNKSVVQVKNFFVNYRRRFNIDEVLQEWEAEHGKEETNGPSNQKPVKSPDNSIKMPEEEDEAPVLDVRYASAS
UniProt Q92769: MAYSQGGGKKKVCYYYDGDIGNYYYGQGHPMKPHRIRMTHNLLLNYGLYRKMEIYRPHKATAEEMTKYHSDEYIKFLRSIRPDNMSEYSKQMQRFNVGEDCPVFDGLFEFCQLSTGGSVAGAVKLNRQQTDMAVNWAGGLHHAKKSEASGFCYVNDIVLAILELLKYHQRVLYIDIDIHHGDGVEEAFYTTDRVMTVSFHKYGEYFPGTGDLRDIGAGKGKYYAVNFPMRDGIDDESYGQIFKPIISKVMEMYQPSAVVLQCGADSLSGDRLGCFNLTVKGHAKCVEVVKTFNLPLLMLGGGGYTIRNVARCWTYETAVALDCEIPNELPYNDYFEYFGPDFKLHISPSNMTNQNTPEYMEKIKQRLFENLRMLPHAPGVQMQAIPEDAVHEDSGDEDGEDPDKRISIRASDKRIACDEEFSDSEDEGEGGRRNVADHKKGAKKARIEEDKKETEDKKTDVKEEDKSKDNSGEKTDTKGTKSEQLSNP
UniProt Q9NP66: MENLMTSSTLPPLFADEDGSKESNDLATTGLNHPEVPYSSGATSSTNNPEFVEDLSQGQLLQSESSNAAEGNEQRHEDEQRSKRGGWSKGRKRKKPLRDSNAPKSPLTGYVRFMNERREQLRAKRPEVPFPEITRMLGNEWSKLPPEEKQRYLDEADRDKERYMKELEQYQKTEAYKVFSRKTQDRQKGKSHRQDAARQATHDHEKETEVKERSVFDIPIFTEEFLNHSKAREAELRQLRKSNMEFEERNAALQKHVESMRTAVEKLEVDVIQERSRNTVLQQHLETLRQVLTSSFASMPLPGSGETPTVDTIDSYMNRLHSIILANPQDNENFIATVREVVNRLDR
UniProt P25787: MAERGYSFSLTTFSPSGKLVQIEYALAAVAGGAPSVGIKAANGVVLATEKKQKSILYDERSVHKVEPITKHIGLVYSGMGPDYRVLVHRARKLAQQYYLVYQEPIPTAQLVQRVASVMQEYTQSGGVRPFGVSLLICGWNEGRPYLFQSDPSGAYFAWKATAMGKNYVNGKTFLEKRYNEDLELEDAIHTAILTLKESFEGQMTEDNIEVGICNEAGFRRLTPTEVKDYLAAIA
UniProt Q8IZ40: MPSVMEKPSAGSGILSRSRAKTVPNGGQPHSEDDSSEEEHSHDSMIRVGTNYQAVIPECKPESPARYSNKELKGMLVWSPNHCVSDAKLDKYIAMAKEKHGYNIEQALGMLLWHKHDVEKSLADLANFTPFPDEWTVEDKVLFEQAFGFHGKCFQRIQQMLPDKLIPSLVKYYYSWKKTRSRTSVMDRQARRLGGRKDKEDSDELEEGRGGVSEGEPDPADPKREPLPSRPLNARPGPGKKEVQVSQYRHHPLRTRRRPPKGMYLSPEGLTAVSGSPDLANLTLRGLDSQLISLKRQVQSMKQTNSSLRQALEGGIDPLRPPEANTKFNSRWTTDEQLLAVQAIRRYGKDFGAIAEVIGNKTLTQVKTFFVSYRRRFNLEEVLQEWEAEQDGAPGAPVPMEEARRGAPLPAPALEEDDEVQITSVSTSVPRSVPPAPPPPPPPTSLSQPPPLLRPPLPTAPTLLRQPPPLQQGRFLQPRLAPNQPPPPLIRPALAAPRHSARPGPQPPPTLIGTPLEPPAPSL
UniProt O95816: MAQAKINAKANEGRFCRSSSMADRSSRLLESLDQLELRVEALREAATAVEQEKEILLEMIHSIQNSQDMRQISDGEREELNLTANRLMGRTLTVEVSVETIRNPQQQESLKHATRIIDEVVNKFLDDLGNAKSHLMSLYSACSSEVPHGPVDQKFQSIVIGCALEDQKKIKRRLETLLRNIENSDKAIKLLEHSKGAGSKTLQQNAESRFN
UniProt P61244: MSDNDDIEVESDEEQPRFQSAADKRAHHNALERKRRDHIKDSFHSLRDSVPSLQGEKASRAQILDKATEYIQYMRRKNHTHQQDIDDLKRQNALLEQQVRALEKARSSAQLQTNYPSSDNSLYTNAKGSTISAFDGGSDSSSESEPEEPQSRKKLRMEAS
UniProt Q03112: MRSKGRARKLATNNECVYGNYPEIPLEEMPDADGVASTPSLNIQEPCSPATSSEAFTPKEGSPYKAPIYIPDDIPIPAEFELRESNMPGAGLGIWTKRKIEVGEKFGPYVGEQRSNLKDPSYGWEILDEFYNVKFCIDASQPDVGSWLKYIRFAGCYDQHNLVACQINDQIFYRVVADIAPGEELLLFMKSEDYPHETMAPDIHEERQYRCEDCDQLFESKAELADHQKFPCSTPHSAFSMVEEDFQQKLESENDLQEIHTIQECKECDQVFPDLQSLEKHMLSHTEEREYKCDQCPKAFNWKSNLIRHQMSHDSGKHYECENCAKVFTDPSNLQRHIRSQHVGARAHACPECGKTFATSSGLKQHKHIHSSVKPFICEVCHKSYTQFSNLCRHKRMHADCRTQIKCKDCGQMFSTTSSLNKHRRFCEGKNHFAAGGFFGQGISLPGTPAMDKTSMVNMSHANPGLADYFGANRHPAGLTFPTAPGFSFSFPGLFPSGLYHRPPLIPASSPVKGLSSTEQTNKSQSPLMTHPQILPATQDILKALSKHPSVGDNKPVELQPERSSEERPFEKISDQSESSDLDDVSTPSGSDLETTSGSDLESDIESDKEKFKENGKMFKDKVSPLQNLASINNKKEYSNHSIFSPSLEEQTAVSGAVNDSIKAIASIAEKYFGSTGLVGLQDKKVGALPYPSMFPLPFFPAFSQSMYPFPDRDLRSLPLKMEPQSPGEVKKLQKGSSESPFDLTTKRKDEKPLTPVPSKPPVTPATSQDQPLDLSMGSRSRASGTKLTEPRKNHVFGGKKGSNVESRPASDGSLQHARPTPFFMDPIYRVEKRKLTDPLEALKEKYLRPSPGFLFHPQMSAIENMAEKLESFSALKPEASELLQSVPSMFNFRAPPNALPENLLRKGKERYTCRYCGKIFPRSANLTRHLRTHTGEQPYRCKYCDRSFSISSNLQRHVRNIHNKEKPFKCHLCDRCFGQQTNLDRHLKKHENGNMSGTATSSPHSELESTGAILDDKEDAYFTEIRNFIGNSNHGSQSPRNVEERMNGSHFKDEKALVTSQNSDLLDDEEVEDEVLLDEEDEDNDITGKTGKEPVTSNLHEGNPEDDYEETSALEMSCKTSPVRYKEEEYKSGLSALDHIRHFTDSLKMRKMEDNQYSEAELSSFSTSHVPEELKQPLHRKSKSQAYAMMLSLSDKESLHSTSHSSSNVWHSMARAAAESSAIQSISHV
UniProt Q14186: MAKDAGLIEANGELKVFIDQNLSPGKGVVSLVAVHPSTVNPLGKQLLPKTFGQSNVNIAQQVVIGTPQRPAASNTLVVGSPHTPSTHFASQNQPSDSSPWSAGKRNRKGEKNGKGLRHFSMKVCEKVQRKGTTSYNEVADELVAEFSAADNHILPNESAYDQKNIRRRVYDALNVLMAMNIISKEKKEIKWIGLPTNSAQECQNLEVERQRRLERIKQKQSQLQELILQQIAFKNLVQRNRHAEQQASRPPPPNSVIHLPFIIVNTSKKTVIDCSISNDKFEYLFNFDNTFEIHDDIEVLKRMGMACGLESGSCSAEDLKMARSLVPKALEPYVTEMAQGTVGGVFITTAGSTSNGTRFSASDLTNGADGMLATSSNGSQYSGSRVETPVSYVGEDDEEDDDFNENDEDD

Target: T1, V5-tagged version of the endogenous GSE1 protein (human) (UniProt Q14687)
T1 sequence: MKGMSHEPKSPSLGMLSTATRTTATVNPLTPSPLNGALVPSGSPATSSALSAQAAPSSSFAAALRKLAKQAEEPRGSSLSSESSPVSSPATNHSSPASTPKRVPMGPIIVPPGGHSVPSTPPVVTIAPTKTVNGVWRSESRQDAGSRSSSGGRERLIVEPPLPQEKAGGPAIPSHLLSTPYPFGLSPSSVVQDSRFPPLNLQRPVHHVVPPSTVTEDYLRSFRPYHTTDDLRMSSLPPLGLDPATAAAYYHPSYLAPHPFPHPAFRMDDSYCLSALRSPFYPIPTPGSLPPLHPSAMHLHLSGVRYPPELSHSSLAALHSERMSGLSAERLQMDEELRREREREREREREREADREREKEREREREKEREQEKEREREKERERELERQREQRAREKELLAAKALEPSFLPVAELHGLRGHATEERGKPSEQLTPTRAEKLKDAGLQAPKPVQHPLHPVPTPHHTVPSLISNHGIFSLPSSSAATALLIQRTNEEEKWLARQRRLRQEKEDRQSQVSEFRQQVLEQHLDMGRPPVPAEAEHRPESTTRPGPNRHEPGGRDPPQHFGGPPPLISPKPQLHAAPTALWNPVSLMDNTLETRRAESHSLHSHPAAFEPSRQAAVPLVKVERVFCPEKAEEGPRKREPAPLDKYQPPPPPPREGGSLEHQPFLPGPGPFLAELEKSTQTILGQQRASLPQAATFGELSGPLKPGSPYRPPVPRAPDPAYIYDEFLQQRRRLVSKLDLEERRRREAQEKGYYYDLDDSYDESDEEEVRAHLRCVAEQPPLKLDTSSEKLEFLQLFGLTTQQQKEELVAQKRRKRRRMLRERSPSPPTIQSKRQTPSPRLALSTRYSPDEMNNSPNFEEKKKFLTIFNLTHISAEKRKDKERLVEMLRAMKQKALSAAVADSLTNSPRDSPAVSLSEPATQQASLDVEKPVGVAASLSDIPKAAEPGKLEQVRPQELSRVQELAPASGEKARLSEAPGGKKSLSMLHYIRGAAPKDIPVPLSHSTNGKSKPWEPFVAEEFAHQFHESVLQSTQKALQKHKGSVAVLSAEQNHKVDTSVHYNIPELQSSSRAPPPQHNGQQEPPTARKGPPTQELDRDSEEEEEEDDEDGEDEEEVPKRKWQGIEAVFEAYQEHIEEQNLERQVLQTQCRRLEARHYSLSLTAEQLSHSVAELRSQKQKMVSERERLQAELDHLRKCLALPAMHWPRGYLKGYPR
Assay: affinity purification with mass spectrometry; GSE1-V5 captured on V5-beads from HAP1 whole cell extract (Hunt buffer), untreated and 6 h etoposide treated cells; control HAP1 WT cells; on-bead digest, label-free quantification

binding, binds:
CoREST (from UniProt Q9UKL0 1-485)
HDAC1 (endogenous, human) (from UniProt Q13547 1-482)
HDAC2 (endogenous, human) (from UniProt Q92769 1-488)
HMB20A (from UniProt Q9NP66 1-347)
PSMA2 (from UniProt P25787 1-234)
RCOR2 (from UniProt Q8IZ40 1-523)
RCOR3 (from UniProt Q9P2K3 1-495)

Target: C-terminally FLAG-tagged wildtype HDAC1 (UniProt Q13547)
Assay: affinity purification with mass spectrometry; HDAC1-FLAG captured on crosslinked M2-FLAG beads from HAP1 whole cell extract (Hunt buffer: 20 mM Tris/HCl pH 8.0, 100 mM NaCl, 1 mM EDTA, 0.5% NP-40), overnight 4°C; control HDAC1 KO cells; on-bead digest, label-free quantification

binding, binds:
BAG2 (from UniProt O95816 1-211)
MAX (from UniProt P61244 1-160)
MECOM (from UniProt Q03112 1-1230)
SQSTM1 (from UniProt Q13501 1-440)
TFDP1 (from UniProt Q14186 1-410)

Results are given in words; binding and its absence hold for the method and conditions named. Binding seen in cells or lysates may run through a third protein. These calls come from enrichment with a bait or labelling near it, and not all partners need be listed. For part of these data: Where a sequence is shown, tags or fusion partners need not be part of it.
